{"sequences": {"note": "Sequences of proteins named here, by UniProt entry; tags and fusion partners are left off.", "UniProt Q9GZV5": "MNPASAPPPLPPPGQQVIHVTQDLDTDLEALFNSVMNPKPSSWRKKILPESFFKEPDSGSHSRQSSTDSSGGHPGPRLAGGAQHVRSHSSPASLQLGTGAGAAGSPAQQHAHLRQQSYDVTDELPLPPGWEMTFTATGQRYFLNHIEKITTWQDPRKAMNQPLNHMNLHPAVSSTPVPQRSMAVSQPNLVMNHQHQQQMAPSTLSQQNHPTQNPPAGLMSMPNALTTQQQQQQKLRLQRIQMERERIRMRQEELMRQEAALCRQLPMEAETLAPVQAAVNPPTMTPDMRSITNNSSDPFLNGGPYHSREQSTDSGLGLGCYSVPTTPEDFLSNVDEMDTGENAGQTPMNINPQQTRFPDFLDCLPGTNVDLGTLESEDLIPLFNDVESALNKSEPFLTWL"}, "source": "paper PMC9275142", "molecules": {"B1": {"name": "Flag-DUB1 full length (enzyme, UniProt Q9P275 1-1123)", "chain": "MPIVDKLKEALKPGRKDSADDGELGKLLASSAKKVLLQKIEFEPASKSFSYQLEALKSKYVLLNPKTEGASRHKSGDDPPARRQGSEHTYESCGDGVPAPQKVLFPTERLSLRWERVFRVGAGLHNLGNTCFLNATIQCLTYTPPLANYLLSKEHARSCHQGSFCMLCVMQNHIVQAFANSGNAIKPVSFIRDLKKIARHFRFGNQEDAHEFLRYTIDAMQKACLNGCAKLDRQTQATTLVHQIFGGYLRSRVKCSVCKSVSDTYDPYLDVALEIRQAANIVRALELFVKADVLSGENAYMCAKCKKKVPASKRFTIHRTSNVLTLSLKRFANFSGGKITKDVGYPEFLNIRPYMSQNNGDPVMYGLYAVLVHSGYSCHAGHYYCYVKASNGQWYQMNDSLVHSSNVKVVLNQQAYVLFYLRIPGSKKSPEGLISRTGSSSLPGRPSVIPDHSKKNIGNGIISSPLTGKRQDSGTMKKPHTTEEIGVPISRNGSTLGLKSQNGCIPPKLPSGSPSPKLSQTPTHMPTILDDPGKKVKKPAPPQHFSPRTAQGLPGTSNSNSSRSGSQRQGSWDSRDVVLSTSPKLLATATANGHGLKGNDESAGLDRRGSSSSSPEHSASSDSTKAPQTPRSGAAHLCDSQETNCSTAGHSKTPPSGADSKTVKLKSPVLSNTTTEPASTMSPPPAKKLALSAKKASTLWRATGNDLRPPPPSPSSDLTHPMKTSHPVVASTWPVHRARAVSPAPQSSSRLQPPFSPHPTLLSSTPKPPGTSEPRSCSSISTALPQVNEDLVSLPHQLPEASEPPQSPSEKRKKTFVGEPQRLGSETRLPQHIREATAAPHGKRKRKKKKRPEDTAASALQEGQTQRQPGSPMYRREGQAQLPAVRRQEDGTQPQVNGQQVGCVTDGHHASSRKRRRKGAEGLGEEGGLHQDPLRHSCSPMGDGDPEAMEESPRKKKKKKRKQETQRAVEEDGHLKCPRSAKPQDAVVPESSSCAPSANGWCPGDRMGLSQAPPVSWNGERESDVVQELLKYSSDKAYGRKVLTWDGKMSAVSQDAIEDSRQARTETVVDDWDEEFDRGKEKKIKKFKREKRRNFNAFQKLQTRRNFWSVTHPAKAASLSYRR"}}, "key": {"Flag-DUB1 full length": {"target": "T1, Flag-DUB1 full length (UniProt Q9P275)", "T1 sequence": "B1 chain", "assay": "co-IP; HEK293 transfected with Flag-DUB1 and Myc-TAZ (full length or deletion mutants); NP-40 lysis buffer; IP with anti-Flag (Fig. 5G)"}, "[1]": {"target": "T2, DUB1 (also called USP36), endogenous (human (endogenous in MGC803)) (UniProt Q9P275)", "T2 sequence": "B1 chain", "assay": "co-IP; endogenous proteins; MGC803 lysate (RIPA lysis buffer) precleared with rabbit IgG, immunoprecipitated with anti-DUB1 overnight, rabbit IgG as negative control, blot with anti-TAZ"}, "Myc-TAZ full length": {"target": "Myc-TAZ full length (UniProt Q9GZV5)", "assay": "co-IP; HEK293 transfected with Myc-TAZ and Flag-DUB1 (full length or domains); NP-40 lysis buffer; IP with anti-Myc, blot with anti-Flag (Fig. 5F)"}}, "note": "Results are given in words; binding and its absence hold for the method and conditions named. Binding seen in cells or lysates may run through a third protein. Some results given as binding are weak or reduced against the parent protein; the word gives no strength. For part of these data: Tags and fused reporters may be left off the sequences shown.", "data": [{"molecule": "Myc-TAZ full length (from UniProt Q9GZV5 1-400)", "values": [{"measurement": "binding", "setting": "Flag-DUB1 full length", "result": "binds"}]}, {"molecule": "TAZ (Transcriptional Co-Activator With PDZ-Binding Motif), endogenous (from UniProt Q9GZV5 1-400)", "values": [{"measurement": "binding", "setting": "[1]", "result": "binds"}]}, {"molecule": "B1", "values": [{"measurement": "binding", "setting": "Myc-TAZ full length", "result": "binds"}]}]}
